The values below come from article PMC11290490, “Structural insights into activation mechanisms on NADase of the bacterial DSR2 anti-phage defense system” (Science Advances, 2024).

The assay concerns the target T1, defense-associated sirtuin2 (DSR2) from Bacillus subtilis 29R (Bacillus subtilis 29R) (UniProt P0DXN8).
T1 sequence: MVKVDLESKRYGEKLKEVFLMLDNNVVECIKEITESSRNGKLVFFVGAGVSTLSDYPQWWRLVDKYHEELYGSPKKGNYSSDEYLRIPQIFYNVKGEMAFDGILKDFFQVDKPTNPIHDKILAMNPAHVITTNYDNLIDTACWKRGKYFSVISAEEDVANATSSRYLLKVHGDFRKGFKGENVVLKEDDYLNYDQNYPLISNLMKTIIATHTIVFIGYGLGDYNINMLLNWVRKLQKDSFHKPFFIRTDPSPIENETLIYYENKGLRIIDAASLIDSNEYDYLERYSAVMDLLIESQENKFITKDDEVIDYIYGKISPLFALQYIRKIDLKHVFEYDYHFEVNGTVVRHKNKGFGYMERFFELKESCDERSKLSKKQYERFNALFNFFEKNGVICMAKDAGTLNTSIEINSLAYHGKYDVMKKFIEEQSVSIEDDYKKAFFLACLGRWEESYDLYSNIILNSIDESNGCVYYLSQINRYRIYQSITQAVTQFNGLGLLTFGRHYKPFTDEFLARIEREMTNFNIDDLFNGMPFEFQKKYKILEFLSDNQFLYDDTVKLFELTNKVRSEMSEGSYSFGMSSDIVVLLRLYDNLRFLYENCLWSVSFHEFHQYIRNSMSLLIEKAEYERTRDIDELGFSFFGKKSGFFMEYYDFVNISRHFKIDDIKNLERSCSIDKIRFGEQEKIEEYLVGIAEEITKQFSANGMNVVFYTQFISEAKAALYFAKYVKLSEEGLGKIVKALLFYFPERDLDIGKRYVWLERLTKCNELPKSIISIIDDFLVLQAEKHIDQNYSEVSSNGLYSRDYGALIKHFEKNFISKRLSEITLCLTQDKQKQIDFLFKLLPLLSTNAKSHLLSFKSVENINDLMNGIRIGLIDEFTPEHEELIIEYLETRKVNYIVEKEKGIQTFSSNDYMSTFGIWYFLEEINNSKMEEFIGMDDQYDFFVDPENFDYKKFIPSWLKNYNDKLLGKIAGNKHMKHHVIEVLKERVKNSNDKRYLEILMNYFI
Briefly: cryo-EM structure; purified DSR2 or its complex with DSAD1 or TTP (formed at a molar ratio of 1:3, on ice, purified by gel filtration), 1.0 mg/ml on Quantifoil grids; both purified.

These are yes or no findings as the source states them, for the method shown. Some results given as binding are weak or reduced against the parent protein; the word gives no strength.

B1: DSR anti-defense 1 (DSAD1) from phage phi3T/SPbeta (natural protein)
chain: KDTGATHDLVYHSKINTFVWDVEFDIVLSDSKELNKCYFVKCFNPYRINGKCDFAVSSIDIFSEGKRLLIENEFNFKITKAVHVATSKDVTEIVLHLSERISSPFPIVKEVVYLD
notes: DSAD1 from phage phi3T/SPbeta, WP_004399562; source: E. coli BL21(DE3), purified (Ni-NTA, TEV cleavage, SEC); not shown: His-tag, N-terminal, cleaved; Trx-tag, N-terminal, cleaved
Consider B1, for which the binding entry is listed as “binds”.
